Experimental data: PubChem BioAssay AID652243 (Drosophila RNAi Screening Center, 2013)
Aim: 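Fly genes required for human androgen receptor driven transcription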 (primary screen). System: Drosophila S2R+ cells. Knock-down reagent: long dsRNA against Drosophila genes. Timing: 72 h (48 h, then 24 h hormone). Conditions: synthetic androgen R1881 at 10 nM for 24 h. Measurement: 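Per-well raw luminescence of the androgen-driven firefly reporter and of the Renilla control, two replicates each, without normalisation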. Scale: firefly reporter light: higher = more light from androgen-responsive reporter; Renilla control light: higher = more constitutive control signal (cell number, transfection). Hit rule: 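Hit when the log firefly-to-Renilla ratio dropped or increased by a fixed fold versus the mean of GFP or LacZ controls across duplicate plates; lowering cut given as 1.5 and as 3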. Calls: active = hit: reporter lowered or raised; inactive = no hit.
The screen tested about 24,000 reagents; shown is an unselected part of those with a known target gene and a result. Over the whole deposit, 246 (1%) got an active call. 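Plates not normalised; calls are printed but the firefly/Renilla ratio behind them is not deposited; fold cut for lowering reported inconsistently.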 Raw values vary from plate to plate and are shown uncorrected. The numbers tell different reagents against one gene apart. The record does not give: the amount of reagent.

| target gene | reagent | firefly reporter light, replicate 1 | firefly reporter light, replicate 2 | Renilla control light, replicate 1 | Renilla control light, replicate 2 | activity call |
| --- | --- | --- | --- | --- | --- | --- |
| CG32187 (GeneID 39980) | 1 | 1.57e5 | 1.20e5 | 1.63e6 | 1.59e6 | inactive |
| CG32944 (GeneID 40560) | 1 | 50194 | 96820 | 1.07e6 | 1.13e6 | inactive |
| CG32944 (GeneID 40560) | 2 | 80783 | 93816 | 1.53e6 | 1.58e6 | inactive |
| CG32944 (GeneID 40560) | 3 | – | – | – | – | inactive |
| CG6790 (GeneID 41388) | 1 | 43447 | 40536 | 3.71e5 | 5.12e5 | inactive |
| CG18063 (GeneID 34943) | 1 | 2.20e5 | 2.35e5 | 1.84e6 | 2.06e6 | inactive |
| FAM21 (GeneID 37331) | 1 | 1.16e6 | 1.11e6 | 1.17e6 | 1.11e6 | inactive |
| FAM21 (GeneID 37331) | 2 | 2.08e5 | 2.15e5 | 6.77e5 | 5.64e5 | inactive |
| FAM21 (GeneID 37331) | 3 | 6.45e5 | 6.18e5 | 1.88e6 | 1.90e6 | inactive |
| CG1943 (GeneID 40844) | 1 | 80967 | 68182 | 1.53e6 | 1.55e6 | inactive |
| polo (GeneID 40232) | 1 | 3.02e5 | 3.95e5 | 2.37e6 | 3.02e6 | inactive |
| polo (GeneID 40232) | 2 | 5.18e5 | 4.27e5 | 1.02e6 | 9.77e5 | inactive |
| polo (GeneID 40232) | 3 | – | – | – | – | inactive |
| polo (GeneID 40232) | 4 | 6.81e5 | 5.18e5 | 1.77e6 | 1.22e6 | inactive |
| Svil (GeneID 38306) | 1 | 7.98e5 | 5.17e5 | 1.54e6 | 1.63e6 | inactive |
| Svil (GeneID 38306) | 2 | 56096 | 64178 | 1.01e6 | 9.51e5 | inactive |
| Svil (GeneID 38306) | 3 | 60035 | 43045 | 1.08e6 | 9.37e5 | inactive |
| Svil (GeneID 38306) | 4 | 7.71e5 | 8.40e5 | 1.12e6 | 1.17e6 | inactive |
| Svil (GeneID 38306) | 5 | 2.37e5 | 2.67e5 | 4.43e5 | 4.02e5 | inactive |

Next part (5 carried over from the part before).
| target gene | reagent | firefly reporter light, replicate 1 | firefly reporter light, replicate 2 | Renilla control light, replicate 1 | Renilla control light, replicate 2 | activity call |
| --- | --- | --- | --- | --- | --- | --- |
| Svil (GeneID 38306) | 1 | 7.98e5 | 5.17e5 | 1.54e6 | 1.63e6 | inactive |
| Svil (GeneID 38306) | 2 | 56096 | 64178 | 1.01e6 | 9.51e5 | inactive |
| Svil (GeneID 38306) | 3 | 60035 | 43045 | 1.08e6 | 9.37e5 | inactive |
| Svil (GeneID 38306) | 4 | 7.71e5 | 8.40e5 | 1.12e6 | 1.17e6 | inactive |
| Svil (GeneID 38306) | 5 | 2.37e5 | 2.67e5 | 4.43e5 | 4.02e5 | inactive |
| Oxp (GeneID 37002) | 1 | 1.31e5 | 97009 | 1.68e6 | 1.68e6 | inactive |
| CG32590 (GeneID 318103) | 1 | 4.56e5 | 5.40e5 | 2.82e6 | 3.01e6 | inactive |
| fau (GeneID 41291) | 1 | 70044 | 1.02e5 | 1.55e5 | 1.00e5 | inactive |
| fau (GeneID 41291) | 2 | 1.33e5 | 1.13e5 | 1.85e5 | 1.67e5 | inactive |
| fau (GeneID 41291) | 3 | 65940 | 87875 | 7.30e5 | 1.09e6 | inactive |
| fau (GeneID 41291) | 4 | 1.05e5 | 1.44e5 | 1.91e6 | 1.78e6 | inactive |
| fau (GeneID 41291) | 5 | 3.13e5 | 3.22e5 | 2.00e6 | 2.37e6 | inactive |
| fau (GeneID 41291) | 6 | 6.54e5 | 5.50e5 | 5.84e5 | 4.16e5 | inactive |
| fau (GeneID 41291) | 7 | 2.73e5 | 2.24e5 | 5.16e5 | 6.40e5 | inactive |
| CG5191 (GeneID 42431) | 1 | 1.39e5 | 1.09e5 | 1.42e6 | 1.44e6 | inactive |
| CG5191 (GeneID 42431) | 2 | 1.69e5 | 2.10e5 | 3.04e6 | 3.03e6 | inactive |
| CG5191 (GeneID 42431) | 3 | 6.68e5 | 7.42e5 | 1.44e6 | 1.88e6 | inactive |
| CG5191 (GeneID 42431) | 4 | 2.52e5 | 2.16e5 | 2.25e5 | 5.31e5 | inactive |
| yuri (GeneID 34894) | 1 | 1.11e5 | 1.26e5 | 3.61e5 | 4.34e5 | inactive |
| yuri (GeneID 34894) | 2 | 1.80e5 | 1.82e5 | 2.01e6 | 2.31e6 | inactive |
| yuri (GeneID 34894) | 3 | 7.57e5 | 5.29e5 | 1.83e6 | 1.49e6 | inactive |
| yuri (GeneID 34894) | 4 | 5.37e5 | 4.35e5 | 9.07e5 | 1.00e6 | inactive |
| pho (GeneID 43819) | 1 | 1.61e5 | 1.31e5 | 3.21e6 | 1.91e6 | inactive |
| pho (GeneID 43819) | 2 | 5.12e5 | 4.34e5 | 1.91e6 | 1.61e6 | active |
| fd19B (GeneID 33010) | 1 | 5.09e5 | 6.60e5 | 1.82e6 | 2.11e6 | inactive |
| fd19B (GeneID 33010) | 2 | 4.21e5 | 3.23e5 | 5.52e5 | 3.54e5 | inactive |
| ro (GeneID 43234) | 1 | 76684 | 34158 | 1.29e6 | 1.28e6 | inactive |
| ro (GeneID 43234) | 2 | 4.49e5 | 2.79e5 | 1.48e6 | 4.45e5 | inactive |
| eEF1delta (GeneID 34363) | 1 | 7.97e5 | 7.67e5 | 1.42e6 | 1.69e6 | inactive |
| eEF1delta (GeneID 34363) | 2 | 3.58e5 | 2.55e5 | 7.38e5 | 7.37e5 | inactive |
| cyc (GeneID 40162) | 1 | 2.29e5 | 1.18e5 | 2.81e6 | 2.03e6 | inactive |
| EMC4 (GeneID 40505) | 1 | 3.95e5 | 2.73e5 | 2.84e6 | 1.80e6 | inactive |
| EMC4 (GeneID 40505) | 2 | 3.68e5 | 2.95e5 | 7.85e5 | 7.85e5 | inactive |
| CG13023 (GeneID 39894) | 1 | 3.02e5 | 1.63e5 | 2.99e6 | 2.93e6 | inactive |
| CG9173 (GeneID 38165) | 1 | 1.18e5 | 1.15e5 | 1.31e6 | 1.84e6 | inactive |
| CG3164 (GeneID 33171) | 1 | 40390 | 37636 | 3.10e5 | 3.65e5 | inactive |
| Lar (GeneID 35259) | 1 | 1.46e5 | 1.93e5 | 5.47e5 | 4.99e5 | inactive |
| Lar (GeneID 35259) | 2 | 1.24e6 | 7.03e5 | 2.86e6 | 1.73e6 | inactive |
| Lar (GeneID 35259) | 3 | – | – | – | – | inactive |
| CG31704 (GeneID 318906) | 1 | 1.02e6 | 8.91e5 | 2.27e6 | 2.70e6 | inactive |
| CG9933 (GeneID 34700) | 1 | 90943 | 1.26e5 | 1.13e6 | 1.14e6 | inactive |
| CG9933 (GeneID 34700) | 2 | 6.07e5 | 4.17e5 | 7.69e5 | 7.69e5 | inactive |
| qkr58E-3 (GeneID 37559) | 1 | 7.93e5 | 7.05e5 | 9.60e5 | 1.12e6 | inactive |
| CG13840 (GeneID 42705) | 1 | 1.05e6 | 9.05e5 | 1.62e6 | 1.41e6 | inactive |
| CG13840 (GeneID 42705) | 2 | 3.59e5 | 4.26e5 | 9.34e5 | 1.07e6 | inactive |
